Assay results from patent publication US20250339466A1 (published 2025).
These are yes or no findings as the source states them, for the method shown. Some results given as binding are weak or reduced against the parent protein; the word gives no strength.

Chains of the proteins cited; added tags and fusions are not shown. Lines headed by an entry give the natural chain unless they say otherwise; changes in a name come on top.
UniProt Q02223: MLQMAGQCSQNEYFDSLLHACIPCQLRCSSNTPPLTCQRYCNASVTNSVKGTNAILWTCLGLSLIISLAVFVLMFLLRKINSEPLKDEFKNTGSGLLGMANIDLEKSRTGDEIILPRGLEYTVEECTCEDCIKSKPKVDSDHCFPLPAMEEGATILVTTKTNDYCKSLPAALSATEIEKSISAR

Biological target: human BCMA protein (Octet; construct not specified) (human) (UniProt Q02223)
Assay: Octet (BLI), human BCMA

| binding | Binder |
| --- | --- |
| binds | Ab 2 (lead anti-BCMA clone, Table 4; printed there as VH: SEQ ID NO: 26, VL: SEQ ID NO: 25) (antibody, V domains shown) VH: QITLRESGGDVVQPGRSLRLSCAASGFTFSSYAIHWVRQAPGKGLEWVAVTWHDGSNKYYAESVMGRFTISRDNSKNTLYLHMNSLRAEDTGVYYCARAKFGEPQYFQHWGQGTLVTVSS VL: DIVMTQSPSFLSASVGDRVTITCRASQGINNYLAWYQQKPGIAPKLLIYAASTLQSGVPSRFGGSGSGTEFTLTISSLQPEDFATYYCQQLKSYPFTFGPGTKVEIK |
| binds | Ab 3 (lead anti-BCMA clone, Table 4; printed there as VH: SEQ ID NO: 10, VL: SEQ ID NO: 27) (antibody, V domains shown) VH: EVQLVESGGDVVQPGRSLRLSCAASGFTFSSYAIHWVRQAPGKGLEWVAVTWHDGSNKYYAESVMGRFTISRDNSKNTLYLHMNSLRAEDTGVYYCARAKFGEPQYFQHWGQGTTVTVSS VL: DIVMTQSPSFLSASVGDRVTITCRASQGISSYLAWYQQKPGKAPKLLIYAASTLQSGVPSRFSGSGSGTEFTLTISSLQPEDFATYYCQQLNSYPFTFGPGTKVDIK |
